Measurements reported in PubChem BioAssay AID602196 (INSERM, 2012).

- Test: 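Genes whose knock-down alters cisplatin killing of lung cancer cells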
- Cells: human A549 lung cancer cells
- Reagents: siRNA pair against human genes
- Duration: 48 h transfection before cisplatin; time from cisplatin to read-out not stated
- Challenge: cisplatin at a dose killing half of control-siRNA cells; exact dose and duration not given
- Measurement: 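Cisplatin cell death as a shift from the 50% death seen with control siRNA; siRNAs toxic or growth-blocking alone scored 0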
- Scale: two-siRNA summed score (-2 to +2): higher = both siRNAs protect from cisplatin killing; -2 means both sensitise; mean protection from cisplatin (shift in death) and protection from cisplatin (shift in death), siRNA C and protection from cisplatin (shift in death), siRNA D: higher = protection from cisplatin killing
- Active means: 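siRNAs harmful alone (LDH or WST-1) get 0; others get +1 for less and -1 for more cisplatin killing; genes are active when the two siRNAs give the same sign, summing to ±2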
- Meaning of the calls: active = both siRNAs shift cisplatin killing the same way; inactive = no consistent shift, or siRNA harmful alone
Shown is a random part of about 23,000 reagents tested. Of all reagents, 455 (2%) are marked active. 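Active includes both protection and sensitisation; some change values fall well beyond the stated -50 to +50 range.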 Entries without a mark were called inactive. Not given: the amount of reagent.

gene | two-siRNA summed score (-2 to +2) | mean protection from cisplatin (shift in death) (%) | protection from cisplatin (shift in death), siRNA C (%) | protection from cisplatin (shift in death), siRNA D (%)
MAP2K5 | 0 | 3 | 9.2 | -3.3
SPACA4 | 0 | 12.7 | 10.1 | 15.3
KCNJ9 | 0 | 4.8 | 2 | 7.6
IRAK1BP1 | 1 | 24.6 | 23.3 | 25.8
NDUFV1-DT | 0 | 6.9 | 6.1 | 7.6
CYP8B1 | 0 | -7.6 | -21.1 | 5.9
FZD10 | 0 | 2.3 | 2.4 | 2.2
LOC442687 | 1 | 18 | 25 | 10.9
ETHE1 | 0 | -4.3 | -12.2 | 3.6
LOC402120 | 0 | 5.9 | 9.3 | 2.6
CYB5R3 | 0 | 7.7 | 8.8 | 6.5
LZTS3 | 0 | 5.1 | -1 | 11.2
SHISAL2A | 0 | 4.6 | 6.4 | 2.8
SLC2A4 | 0 | 8.5 | 10.3 | 6.7
KCNIP3 | 0 | 6.4 | 5.3 | 7.6
TTC9 | 0 | 1.1 | 8.7 | -6.5
ZHX3 | 0 | 1 | -7 | 8.9
PAG1 | 0 | 8.8 | 8.6 | 9.1
LOC342994 | 0 | 27.8 | 19.4 | 36.2
PRCC | 0 | -20 | -26.4 | -13.6
DEFB123 | 1 | -0.1 | 10.8 | -11
HSD11B1 | -1 | -10.6 | -19.8 | -1.4
MARCHF4 | 0 | -2.7 | 0.2 | -5.6
LOC441663 | 1 | 18.3 | 13.2 | 23.4
IL25 | -1 | -0.5 | -11.4 | 10.4

5 entries from above, reformatted:
| gene | two-siRNA summed score (-2 to +2) | mean protection from cisplatin (shift in death) (%) | protection from cisplatin (shift in death), siRNA C (%) | protection from cisplatin (shift in death), siRNA D (%) |
| --- | --- | --- | --- | --- |
| SLC2A4 | 0 | 8.5 | 10.3 | 6.7 |
| KCNIP3 | 0 | 6.4 | 5.3 | 7.6 |
| TTC9 | 0 | 1.1 | 8.7 | -6.5 |
| ZHX3 | 0 | 1 | -7 | 8.9 |
| PAG1 | 0 | 8.8 | 8.6 | 9.1 |

Next entries:
gene | two-siRNA summed score (-2 to +2) | mean protection from cisplatin (shift in death) (%) | protection from cisplatin (shift in death), siRNA C (%) | protection from cisplatin (shift in death), siRNA D (%)
FKBP9 | 0 | 9.8 | 5.1 | 14.5
LOC342853 | 1 | 12.8 | 14.2 | 11.4
LINC00479 | 0 | -1.1 | 2.4 | -4.7
APEX2 | -1 | -12.9 | -16.9 | -8.9
LOC441138 | 0 | 3.9 | 3.9 | 4
FAM90A1 | 0 | 5.3 | -7.9 | 18.5
LOC441898 | 0 | 3 | 3.6 | 2.4
LOC81787 (retired record) | 0 | -1.7 | -8.5 | 5
CCDC88A | 0 | 1.7 | 15.3 | -11.8
ATPAF2 | 0 | 4.4 | -2 | 10.7
WTAP | -1 | -8 | -24.1 | 8.1
LOC388889 | -1 | -4.7 | 7.8 | -17.3
AVPR1A | 0 | 6.6 | 23.5 | -10.3
LRRFIP1 | 0 | -11.7 | -13.9 | -9.6
